Laboratory results reported in the supplement of paper PMC6411743.
± gives the standard deviation of the averaged measurements. This is a selection; strong and weak results do not stand in their true shares. Most entries show no effect beyond the scatter of the controls.

Chains of the proteins cited; added tags and fusions are not shown. Lines headed by an entry give the natural chain unless they say otherwise; changes in a name come on top.
UniProt Q9NPG3, whole entry: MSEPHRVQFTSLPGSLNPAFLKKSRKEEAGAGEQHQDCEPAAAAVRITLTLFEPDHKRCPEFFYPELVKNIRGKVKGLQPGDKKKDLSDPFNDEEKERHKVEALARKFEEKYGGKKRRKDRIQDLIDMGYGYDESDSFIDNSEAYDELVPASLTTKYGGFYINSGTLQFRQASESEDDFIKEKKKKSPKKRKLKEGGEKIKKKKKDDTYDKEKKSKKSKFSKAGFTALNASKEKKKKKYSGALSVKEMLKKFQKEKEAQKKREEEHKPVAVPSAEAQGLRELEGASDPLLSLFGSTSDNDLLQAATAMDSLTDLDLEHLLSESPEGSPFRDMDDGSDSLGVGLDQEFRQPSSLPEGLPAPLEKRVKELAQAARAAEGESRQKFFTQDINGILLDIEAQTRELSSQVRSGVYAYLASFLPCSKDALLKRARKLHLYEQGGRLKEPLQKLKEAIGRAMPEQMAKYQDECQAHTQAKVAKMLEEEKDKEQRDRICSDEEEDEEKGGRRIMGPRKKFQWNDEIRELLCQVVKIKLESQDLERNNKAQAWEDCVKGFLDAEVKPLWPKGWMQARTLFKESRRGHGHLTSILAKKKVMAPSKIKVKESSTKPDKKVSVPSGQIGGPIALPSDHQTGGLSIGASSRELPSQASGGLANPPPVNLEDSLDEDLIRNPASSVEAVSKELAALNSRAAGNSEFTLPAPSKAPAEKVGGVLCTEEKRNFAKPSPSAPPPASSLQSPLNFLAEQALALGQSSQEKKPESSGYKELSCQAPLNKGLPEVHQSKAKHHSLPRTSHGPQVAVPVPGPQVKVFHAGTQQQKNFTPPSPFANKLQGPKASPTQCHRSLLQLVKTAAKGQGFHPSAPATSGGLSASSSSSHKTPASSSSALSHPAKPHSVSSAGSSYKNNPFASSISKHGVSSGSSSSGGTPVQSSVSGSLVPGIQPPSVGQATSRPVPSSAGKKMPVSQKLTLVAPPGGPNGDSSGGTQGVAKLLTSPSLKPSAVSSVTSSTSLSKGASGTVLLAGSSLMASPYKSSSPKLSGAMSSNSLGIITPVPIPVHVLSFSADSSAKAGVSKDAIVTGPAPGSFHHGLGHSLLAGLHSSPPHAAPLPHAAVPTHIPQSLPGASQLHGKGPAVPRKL
UniProt Q9NXC5: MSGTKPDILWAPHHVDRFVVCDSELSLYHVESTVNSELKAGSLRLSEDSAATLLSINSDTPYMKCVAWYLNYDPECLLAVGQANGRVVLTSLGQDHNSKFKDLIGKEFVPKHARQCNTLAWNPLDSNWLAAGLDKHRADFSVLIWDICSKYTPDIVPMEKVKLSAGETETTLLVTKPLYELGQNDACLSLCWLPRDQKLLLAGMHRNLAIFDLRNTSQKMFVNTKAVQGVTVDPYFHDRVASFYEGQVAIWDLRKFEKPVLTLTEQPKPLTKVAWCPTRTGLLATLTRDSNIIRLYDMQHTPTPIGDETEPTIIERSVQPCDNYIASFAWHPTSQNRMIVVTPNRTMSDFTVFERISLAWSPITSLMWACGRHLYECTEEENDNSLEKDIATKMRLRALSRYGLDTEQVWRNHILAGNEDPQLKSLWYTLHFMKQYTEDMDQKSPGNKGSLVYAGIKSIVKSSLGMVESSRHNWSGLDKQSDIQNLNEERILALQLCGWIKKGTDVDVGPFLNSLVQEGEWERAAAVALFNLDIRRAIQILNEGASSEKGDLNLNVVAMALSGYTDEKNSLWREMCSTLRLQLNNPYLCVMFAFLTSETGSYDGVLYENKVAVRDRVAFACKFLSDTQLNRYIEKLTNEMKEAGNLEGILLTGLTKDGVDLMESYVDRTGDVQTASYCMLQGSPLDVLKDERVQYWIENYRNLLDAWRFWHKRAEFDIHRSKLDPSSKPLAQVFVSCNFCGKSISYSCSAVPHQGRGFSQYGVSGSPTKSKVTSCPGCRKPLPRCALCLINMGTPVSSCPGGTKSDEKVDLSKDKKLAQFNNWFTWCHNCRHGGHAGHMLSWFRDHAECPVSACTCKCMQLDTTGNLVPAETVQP
UniProt Q9NYP9: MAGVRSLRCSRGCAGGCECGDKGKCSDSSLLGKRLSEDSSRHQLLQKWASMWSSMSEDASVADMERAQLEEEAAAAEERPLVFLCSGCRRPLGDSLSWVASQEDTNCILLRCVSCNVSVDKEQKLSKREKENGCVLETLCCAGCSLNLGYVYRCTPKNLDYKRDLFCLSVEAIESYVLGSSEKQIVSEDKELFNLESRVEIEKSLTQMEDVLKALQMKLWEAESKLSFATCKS
UniProt Q9NXK8: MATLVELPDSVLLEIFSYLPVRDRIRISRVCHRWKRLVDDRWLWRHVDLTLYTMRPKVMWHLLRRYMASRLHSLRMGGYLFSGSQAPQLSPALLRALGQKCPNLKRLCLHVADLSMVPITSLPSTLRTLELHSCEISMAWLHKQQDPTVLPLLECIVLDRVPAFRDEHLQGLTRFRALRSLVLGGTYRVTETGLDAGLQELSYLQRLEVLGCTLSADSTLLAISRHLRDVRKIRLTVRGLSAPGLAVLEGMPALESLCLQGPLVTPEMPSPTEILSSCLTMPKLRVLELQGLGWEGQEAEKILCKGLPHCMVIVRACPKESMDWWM
UniProt Q9NWF9: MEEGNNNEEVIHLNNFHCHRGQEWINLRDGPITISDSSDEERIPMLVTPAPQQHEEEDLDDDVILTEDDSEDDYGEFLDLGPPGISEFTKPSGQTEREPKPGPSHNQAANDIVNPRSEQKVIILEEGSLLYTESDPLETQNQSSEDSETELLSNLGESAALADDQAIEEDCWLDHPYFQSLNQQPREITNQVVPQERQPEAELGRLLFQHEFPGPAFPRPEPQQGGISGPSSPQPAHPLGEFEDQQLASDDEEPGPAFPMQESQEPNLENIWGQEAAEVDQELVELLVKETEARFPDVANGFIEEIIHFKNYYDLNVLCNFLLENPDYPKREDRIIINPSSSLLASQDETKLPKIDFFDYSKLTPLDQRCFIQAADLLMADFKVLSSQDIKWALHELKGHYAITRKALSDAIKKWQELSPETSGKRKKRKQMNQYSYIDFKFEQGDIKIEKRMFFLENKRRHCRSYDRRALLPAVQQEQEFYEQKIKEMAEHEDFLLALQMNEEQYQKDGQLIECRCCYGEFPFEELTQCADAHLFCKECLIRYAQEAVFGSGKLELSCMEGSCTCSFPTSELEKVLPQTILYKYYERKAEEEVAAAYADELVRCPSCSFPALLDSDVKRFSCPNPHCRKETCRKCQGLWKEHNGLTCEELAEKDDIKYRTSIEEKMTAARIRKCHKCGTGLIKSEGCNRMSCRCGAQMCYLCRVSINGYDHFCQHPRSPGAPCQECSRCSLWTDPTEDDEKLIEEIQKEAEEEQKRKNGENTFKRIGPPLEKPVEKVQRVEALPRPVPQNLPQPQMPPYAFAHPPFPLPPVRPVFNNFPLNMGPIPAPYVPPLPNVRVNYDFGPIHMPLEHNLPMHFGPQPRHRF
UniProt Q9NQE9: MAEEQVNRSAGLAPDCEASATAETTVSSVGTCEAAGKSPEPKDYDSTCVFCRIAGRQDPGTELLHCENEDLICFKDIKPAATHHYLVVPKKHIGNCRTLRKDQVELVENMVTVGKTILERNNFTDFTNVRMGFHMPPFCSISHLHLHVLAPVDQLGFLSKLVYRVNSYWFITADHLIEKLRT
UniProt Q9NYU2: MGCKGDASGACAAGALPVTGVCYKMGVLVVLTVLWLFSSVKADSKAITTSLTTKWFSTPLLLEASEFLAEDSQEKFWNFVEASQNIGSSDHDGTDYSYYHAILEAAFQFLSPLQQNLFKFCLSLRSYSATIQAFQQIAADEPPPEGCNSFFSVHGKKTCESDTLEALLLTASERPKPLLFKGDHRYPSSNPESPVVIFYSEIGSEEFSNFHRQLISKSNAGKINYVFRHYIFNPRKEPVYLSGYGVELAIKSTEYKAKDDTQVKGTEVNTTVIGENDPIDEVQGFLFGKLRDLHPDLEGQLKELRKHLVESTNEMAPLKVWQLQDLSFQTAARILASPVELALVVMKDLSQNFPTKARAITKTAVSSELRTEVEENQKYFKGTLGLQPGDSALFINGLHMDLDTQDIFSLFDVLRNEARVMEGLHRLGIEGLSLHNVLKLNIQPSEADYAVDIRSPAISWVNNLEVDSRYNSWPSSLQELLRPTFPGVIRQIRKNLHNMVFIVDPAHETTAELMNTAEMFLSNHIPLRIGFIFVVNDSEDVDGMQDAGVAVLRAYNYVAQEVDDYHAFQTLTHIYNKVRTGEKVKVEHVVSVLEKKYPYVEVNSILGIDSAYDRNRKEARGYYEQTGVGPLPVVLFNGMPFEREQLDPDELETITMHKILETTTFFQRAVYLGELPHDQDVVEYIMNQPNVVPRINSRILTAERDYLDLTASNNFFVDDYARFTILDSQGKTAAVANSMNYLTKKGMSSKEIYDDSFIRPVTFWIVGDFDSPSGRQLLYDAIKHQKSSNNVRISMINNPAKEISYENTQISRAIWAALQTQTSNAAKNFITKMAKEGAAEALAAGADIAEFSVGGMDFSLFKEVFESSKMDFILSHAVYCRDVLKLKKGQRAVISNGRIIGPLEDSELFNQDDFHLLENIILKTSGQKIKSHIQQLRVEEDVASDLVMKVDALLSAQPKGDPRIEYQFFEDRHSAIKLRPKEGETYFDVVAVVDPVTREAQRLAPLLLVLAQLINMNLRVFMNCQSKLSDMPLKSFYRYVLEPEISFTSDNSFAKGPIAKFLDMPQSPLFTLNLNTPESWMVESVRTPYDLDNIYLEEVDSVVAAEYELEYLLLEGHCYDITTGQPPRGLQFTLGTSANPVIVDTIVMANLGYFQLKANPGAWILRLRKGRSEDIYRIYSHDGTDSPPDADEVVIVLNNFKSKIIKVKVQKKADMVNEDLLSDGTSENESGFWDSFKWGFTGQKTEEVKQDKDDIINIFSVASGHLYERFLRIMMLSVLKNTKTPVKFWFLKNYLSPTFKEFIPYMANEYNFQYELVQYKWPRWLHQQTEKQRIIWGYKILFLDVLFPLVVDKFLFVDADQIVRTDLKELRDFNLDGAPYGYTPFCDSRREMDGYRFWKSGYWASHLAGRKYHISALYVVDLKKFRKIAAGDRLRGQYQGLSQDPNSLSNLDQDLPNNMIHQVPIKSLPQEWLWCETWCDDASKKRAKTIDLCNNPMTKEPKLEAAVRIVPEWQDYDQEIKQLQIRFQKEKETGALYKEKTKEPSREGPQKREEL
UniProt Q9NUA8: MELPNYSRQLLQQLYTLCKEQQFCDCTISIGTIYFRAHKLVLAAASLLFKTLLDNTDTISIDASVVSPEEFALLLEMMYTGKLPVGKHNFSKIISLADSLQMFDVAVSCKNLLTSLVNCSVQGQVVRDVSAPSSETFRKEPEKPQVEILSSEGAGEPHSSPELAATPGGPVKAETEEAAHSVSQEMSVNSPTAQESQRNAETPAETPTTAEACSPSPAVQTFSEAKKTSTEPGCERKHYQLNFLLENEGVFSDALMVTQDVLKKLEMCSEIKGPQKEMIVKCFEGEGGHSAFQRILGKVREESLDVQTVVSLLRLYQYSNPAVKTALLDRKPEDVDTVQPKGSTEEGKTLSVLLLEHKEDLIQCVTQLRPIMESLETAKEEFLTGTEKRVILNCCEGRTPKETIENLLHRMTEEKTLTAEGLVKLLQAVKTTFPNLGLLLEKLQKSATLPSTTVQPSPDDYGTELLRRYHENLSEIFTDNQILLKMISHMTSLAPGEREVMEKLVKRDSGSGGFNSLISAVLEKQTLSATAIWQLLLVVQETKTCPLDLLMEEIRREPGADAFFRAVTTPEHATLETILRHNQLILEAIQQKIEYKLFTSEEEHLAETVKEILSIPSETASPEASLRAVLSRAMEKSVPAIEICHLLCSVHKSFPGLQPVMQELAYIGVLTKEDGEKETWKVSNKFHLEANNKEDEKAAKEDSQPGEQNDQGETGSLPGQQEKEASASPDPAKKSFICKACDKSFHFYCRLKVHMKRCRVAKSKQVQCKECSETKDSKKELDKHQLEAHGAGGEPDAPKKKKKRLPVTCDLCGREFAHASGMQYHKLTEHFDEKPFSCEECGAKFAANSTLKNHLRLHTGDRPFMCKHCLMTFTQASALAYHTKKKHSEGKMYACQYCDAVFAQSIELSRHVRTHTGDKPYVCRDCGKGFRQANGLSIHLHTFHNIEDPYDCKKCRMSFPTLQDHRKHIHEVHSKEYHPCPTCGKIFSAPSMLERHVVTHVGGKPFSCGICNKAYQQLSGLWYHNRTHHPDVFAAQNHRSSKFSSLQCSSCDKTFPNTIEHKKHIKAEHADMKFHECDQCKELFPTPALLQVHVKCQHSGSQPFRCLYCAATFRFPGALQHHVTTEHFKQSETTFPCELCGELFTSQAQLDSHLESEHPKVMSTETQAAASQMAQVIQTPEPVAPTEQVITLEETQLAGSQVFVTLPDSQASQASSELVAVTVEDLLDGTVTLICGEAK
UniProt Q9P032: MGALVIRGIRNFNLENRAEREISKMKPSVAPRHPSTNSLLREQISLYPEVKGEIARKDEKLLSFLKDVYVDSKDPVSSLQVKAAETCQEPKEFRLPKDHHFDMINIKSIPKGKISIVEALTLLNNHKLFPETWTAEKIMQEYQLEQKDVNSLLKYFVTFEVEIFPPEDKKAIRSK

Compound: Nc1ncnc2c1ncn2[C@@H]1O[C@H](COP(=O)(O)OP(=O)(O)OP(=O)(O)O)[C@@H](O)[C@H]1O [adenosine triphosphate]
Assay: NP40-soluble protein abundance relative to vehicle (solubility fold change) (ratio); higher = more soluble protein in presence of ATP
Summary of the method: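 Jurkat crude lysate prepared with a Dounce homogeniser was treated at eight concentrations spanning 0.1 to 10 mM, 10 min at room temperature then 3 min at 37 °C. Solubilisation with 0.8% NP40 and benzonase and ultracentrifugation preceded TMT labelling of the supernatant for LC-MS/MS. Fold change against the detergent-processed vehicle was determined per replicate from vsn-normalised intensities, across three independent experiments.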

Target	NP40-soluble protein abundance (concentration: 0.1mM)	NP40-soluble protein abundance (concentration: 0.5mM)
LZTFL1 (UniProt Q9NQ48)	0.931 ± 0.098	0.875 ± 0.11
UniProt Q9P0J0 and related entries	1 ± 0.047	0.936 ± 0.044
RTN4 (UniProt Q9NQC3)	0.966 ± 0.022	0.949 ± 0.03
UniProt Q9NPG3 and related entries	1.03 ± 0.1	1.06 ± 0.07
MTPAP (UniProt Q9NVV4)	1.06 ± 0.039	1.1 ± 0.065
UniProt Q9NX14 and related entries	0.896 ± 0.11	0.874 ± 0.12
UCKL1 (UniProt Q9NWZ5)	1.03 ± 0.012	1.01 ± 0.047
UniProt Q9NR19 and related entries	0.97 ± 0.07	1.02 ± 0.049
MDN1 (UniProt Q9NU22)	1.08 ± 0.016	0.898 ± 0.018
UniProt Q9NRR4 and related entries	1.12 ± 0.1	1.18 ± 0.12
MIOS (UniProt Q9NXC5)	1.11 ± 0.045	1.07 ± 0.032
UniProt Q9NY93 and related entries	0.986 ± 0.046	1 ± 0.023
UniProt Q9NZB8 and related entries	1.02 ± 0.038	0.982 ± 0.027
UniProt Q9NVQ4 and related entries	1.09 ± 0.13	1.06 ± 0.033
FARSB (UniProt Q9NSD9)	1.03 ± 0.065	1.02 ± 0.062
ZNHIT6 (UniProt Q9NWK9)	0.989 ± 0.064	0.985 ± 0.074
ACTR10 (UniProt Q9NZ32)	0.999 ± 0.025	0.998 ± 0.046
UniProt Q9NYP9	1.02 ± 0.028	1.01 ± 0.046
UBQLN4 (UniProt Q9NRR5)	1.02 ± 0.064	0.994 ± 0.068
UniProt Q9NVH6 and related entries	1.06 ± 0.086	1.03 ± 0.053
EIF2B3 (UniProt Q9NR50)	1.04 ± 0.052	1.02 ± 0.035
MED11 (UniProt Q9P086)	1.06 ± 0.31	0.928 ± 0.11
UniProt Q9NUI1 and related entries	0.999 ± 0.023	0.95 ± 0.043
CTNNBIP1 (UniProt Q9NSA3)	0.976 ± 0.037	0.958 ± 0.032

Single records, from the list above. Order of values: NP40-soluble protein abundance (concentration: 0.1mM)	NP40-soluble protein abundance (concentration: 0.5mM)
RTN4 (UniProt Q9NQC3) as listed: 0.966 ± 0.022	0.949 ± 0.03
LZTFL1 (UniProt Q9NQ48) as listed: 0.931 ± 0.098	0.875 ± 0.11

Further entries follow:

Target	NP40-soluble protein abundance (concentration: 0.1mM)	NP40-soluble protein abundance (concentration: 0.5mM)
UniProt Q9P1W8 and related entries	1.08 ± 0.13	0.951 ± 0.068
GNL3L (UniProt Q9NVN8)	1 ± 0.081	1.06 ± 0.011
UniProt Q9NUB1 and related entries	1.03 ± 0.083	1.05 ± 0.048
ANLN (UniProt Q9NQW6)	1.01 ± 0.013	0.998 ± 0.019
UniProt Q9NSY1	1.04 ± 0.051	1.139 ± 0.0098
ALKBH4 (UniProt Q9NXW9)	1.02 ± 0.058	0.978 ± 0.044
UBE2T (UniProt Q9NPD8)	1.03 ± 0.099	0.929 ± 0.1
GTSE1 (UniProt Q9NYZ3)	1.04 ± 0.1	0.939 ± 0.11
UTP6 (UniProt Q9NYH9)	1.06 ± 0.12	0.955 ± 0.065
UniProt Q9NS23-4	1.16 ± 0.045	1.16 ± 0.16
UniProt Q9NXF7	0.993 ± 0.05	0.957 ± 0.11
UniProt Q9NXK8 and related entries	1.05 ± 0.11	1.08 ± 0.065
DMAP1 (UniProt Q9NPF5)	0.946 ± 0.038	0.985 ± 0.037
WDR70 (UniProt Q9NW82)	0.974 ± 0.056	1.02 ± 0.048
UniProt Q9NQC7 and related entries	1 ± 0.07	1 ± 0.021
C9orf78 (UniProt Q9NZ63)	0.948 ± 0.013	0.9418 ± 0.0024
GSKIP (UniProt Q9P0R6)	0.934 ± 0.08	0.835 ± 0.2
DNAJC17 (UniProt Q9NVM6)	0.96 ± 0.096	0.902 ± 0.044
PAK1IP1 (UniProt Q9NWT1)	1.17 ± 0.18	1.05 ± 0.06
CWC15 (UniProt Q9P013)	0.929 ± 0.076	0.901 ± 0.091
UniProt Q9NWF9 and related entries	0.94 ± 0.09	0.973 ± 0.084
UniProt Q9NX55	0.985 ± 0.029	0.997 ± 0.029
UniProt Q9NVH0 and related entries	1.03 ± 0.065	0.952 ± 0.07
UniProt Q9NPA8 and related entries	0.893 ± 0.12	0.963 ± 0.22

Target	NP40-soluble protein abundance (concentration: 0.1mM)	NP40-soluble protein abundance (concentration: 0.5mM)
KLC4 (UniProt Q9NSK0)	0.961 ± 0.02	0.892 ± 0.027
UniProt Q9NPQ8 and related entries	0.995 ± 0.021	1.02 ± 0.016
OCIAD1 (UniProt Q9NX40)	0.999 ± 0.023	0.978 ± 0.021
RNF181 (UniProt Q9P0P0)	0.948 ± 0.066	0.941 ± 0.059
KIF15 (UniProt Q9NS87)	1.02 ± 0.044	1.04 ± 0.083
UniProt Q9NPI1 and related entries	1.01 ± 0.062	1.12 ± 0.051
NIT2 (UniProt Q9NQR4)	1.02 ± 0.066	1.04 ± 0.071
UniProt Q9NRW1	1.03 ± 0.084	1.01 ± 0.081
RAD18 (UniProt Q9NS91)	1.01 ± 0.028	1.1 ± 0.026
IMPAD1 (UniProt Q9NX62)	0.979 ± 0.032	1.01 ± 0.045
TERF2IP (UniProt Q9NYB0)	0.99 ± 0.024	1.01 ± 0.02
UniProt Q9NZQ3 and related entries	1.04 ± 0.062	1.07 ± 0.023
UniProt Q9NPA3	1.05 ± 0.14	0.909 ± 0.1
TRNAU1AP (UniProt Q9NX07)	0.975 ± 0.04	0.989 ± 0.059
UniProt Q9P1F3	0.886 ± 0.11	0.913 ± 0.053
UTP3 (UniProt Q9NQZ2)	0.971 ± 0.051	0.946 ± 0.05
GGA3 (UniProt Q9NZ52)	1.008 ± 0.0056	1 ± 0.039
MRPL15 (UniProt Q9P015)	0.981 ± 0.15	1.06 ± 0.08
UniProt Q9NV70 and related entries	1.08 ± 0.068	1.08 ± 0.094
UniProt Q9NZB2 and related entries	0.992 ± 0.041	1.02 ± 0.049
UniProt Q9NTX5 and related entries	0.99 ± 0.034	0.994 ± 0.035
UniProt Q9NX74	1.04 ± 0.034	1.05 ± 0.14
DYNLRB1 (UniProt Q9NP97)	0.944 ± 0.048	0.912 ± 0.12
UniProt Q9NZD8 and related entries	1.09 ± 0.069	1.06 ± 0.091

Random excerpt: 4 records from the list.
Target	NP40-soluble protein abundance (concentration: 0.1mM)	NP40-soluble protein abundance (concentration: 0.5mM)
TRNAU1AP (UniProt Q9NX07)	0.975 ± 0.04	0.989 ± 0.059
IMPAD1 (UniProt Q9NX62)	0.979 ± 0.032	1.01 ± 0.045
KLC4 (UniProt Q9NSK0)	0.961 ± 0.02	0.892 ± 0.027
NIT2 (UniProt Q9NQR4)	1.02 ± 0.066	1.04 ± 0.071

Later entries

Target	NP40-soluble protein abundance (concentration: 0.1mM)	NP40-soluble protein abundance (concentration: 0.5mM)
UniProt Q9NRD1 and related entries	0.921 ± 0.17	0.948 ± 0.14
HINT3 (UniProt Q9NQE9)	1.02 ± 0.045	1.06 ± 0.1
UniProt Q9NPH0 and related entries	1.08 ± 0.081	1.02 ± 0.2
UniProt Q9NW08 and related entries	1.03 ± 0.0066	1.02 ± 0.036
UniProt Q9NXR1 and related entries	0.938 ± 0.064	0.939 ± 0.085
UniProt Q9NPF2 and related entries	0.899 ± 0.056	0.951 ± 0.034
UniProt Q9NRY4	1.02 ± 0.018	1.02 ± 0.037
UniProt Q9NQH7 and related entries	1.04 ± 0.054	1.05 ± 0.024
UniProt Q9NVJ2	0.944 ± 0.04	1.05 ± 0.097
TBC1D13 (UniProt Q9NVG8)	1.08 ± 0.06	1.06 ± 0.08
SNRK (UniProt Q9NRH2)	1.07 ± 0.059	1.07 ± 0.047
UniProt Q9NZM5	0.971 ± 0.039	0.904 ± 0.044
UniProt Q9NSI8 and related entries	1.01 ± 0.032	0.981 ± 0.043
PHPT1 (UniProt Q9NRX4)	1.01 ± 0.018	0.995 ± 0.041
UniProt Q9P0L0 and related entries	0.988 ± 0.025	0.997 ± 0.025
INTS10 (UniProt Q9NVR2)	1.02 ± 0.018	1.016 ± 0.006
TMEM30A (UniProt Q9NV96)	0.889 ± 0.12	0.851 ± 0.14
UniProt Q9NPJ3	0.983 ± 0.046	1.02 ± 0.058
UniProt Q9P0K8 and related entries	0.942 ± 0.14	0.934 ± 0.041
ZDHHC18 (UniProt Q9NUE0)	1.09 ± 0.085	1 ± 0.068
SMARCAL1 (UniProt Q9NZC9)	1.03 ± 0.066	1.04 ± 0.037
TOMM22 (UniProt Q9NS69)	0.926 ± 0.12	0.869 ± 0.15
UniProt Q9NWY4	1.03 ± 0.072	1.04 ± 0.065
C12orf4 (UniProt Q9NQ89)	1.07 ± 0.11	1.15 ± 0.15

Target	NP40-soluble protein abundance (concentration: 0.1mM)	NP40-soluble protein abundance (concentration: 0.5mM)
TMOD2 (UniProt Q9NZR1)	0.904 ± 0.11	0.97 ± 0.089
KCMF1 (UniProt Q9P0J7)	0.957 ± 0.074	1 ± 0.081
UniProt Q9NV88 and related entries	1.03 ± 0.046	1.07 ± 0.038
UniProt Q9NW75 and related entries	1.06 ± 0.02	1.16 ± 0.2
GPCPD1 (UniProt Q9NPB8)	1.04 ± 0.12	1.01 ± 0.11
UniProt Q9NPA0	1 ± 0.043	0.996 ± 0.013
PANK4 (UniProt Q9NVE7)	1.04 ± 0.082	1.04 ± 0.12
UniProt Q9NYU2 and related entries	1.07 ± 0.079	1.06 ± 0.074
THG1L (UniProt Q9NWX6)	1.09 ± 0.15	0.987 ± 0.21
HMG20B (UniProt Q9P0W2)	0.936 ± 0.054	0.939 ± 0.11
GIMAP4 (UniProt Q9NUV9)	1.04 ± 0.051	1.05 ± 0.069
NECAP2 (UniProt Q9NVZ3)	1 ± 0.019	0.986 ± 0.027
UniProt Q9NRP2	0.941 ± 0.22	0.951 ± 0.35
RLIM (UniProt Q9NVW2)	1.02 ± 0.17	0.984 ± 0.13
TMOD3 (UniProt Q9NYL9)	0.957 ± 0.07	0.957 ± 0.036
UniProt Q9NRV9 and related entries	1.02 ± 0.058	0.997 ± 0.11
UniProt Q9NVH1 and related entries	1.04 ± 0.05	1.02 ± 0.029
ZBTB40 (UniProt Q9NUA8)	1.03 ± 0.042	0.995 ± 0.054
UniProt Q9NQZ6 and related entries	0.87 ± 0.021	0.943 ± 0.13
EXOSC4 (UniProt Q9NPD3)	1.08 ± 0.067	1.09 ± 0.054
CRIPT (UniProt Q9P021)	1.04 ± 0.16	1.06 ± 0.14
ABHD10 (UniProt Q9NUJ1)	1.01 ± 0.077	1.05 ± 0.052
UniProt Q9NRG7-2|Q9NRG7	0.927 ± 0.036	1.1 ± 0.07
UniProt Q9P032	0.921 ± 0.066	0.932 ± 0.077

As entered above.
Entry for PHPT1 (UniProt Q9NRX4) under NP40-soluble protein abundance (concentration: 0.5mM): 0.995 ± 0.041
Entry for GSKIP (UniProt Q9P0R6) under NP40-soluble protein abundance (concentration: 0.1mM): 0.934 ± 0.08
